By UniProt entry, the sequences of proteins in these tests, tags left out. Where a name states a change or a piece, a line headed by the entry shows the natural chain unless it says otherwise.
UniProt Q8L8T7: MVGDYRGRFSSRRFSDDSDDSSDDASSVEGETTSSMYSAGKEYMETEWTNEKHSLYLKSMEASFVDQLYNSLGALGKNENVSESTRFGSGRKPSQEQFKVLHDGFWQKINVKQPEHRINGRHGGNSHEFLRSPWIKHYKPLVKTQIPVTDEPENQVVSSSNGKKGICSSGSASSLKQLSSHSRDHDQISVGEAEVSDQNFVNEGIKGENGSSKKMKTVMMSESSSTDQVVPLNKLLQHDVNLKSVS

According to paper doi:10.1101/2022.05.16.492168:

What was measured:
Experiment in all cases: affinity purification with mass spectrometry
[1] = molecular target: T1, RVE8-HFC (REVEILLE 8 with 3x-FLAG-6x-His C-terminal tag) (Arabidopsis thaliana) (UniProt Q8RWU3)
T1 sequence: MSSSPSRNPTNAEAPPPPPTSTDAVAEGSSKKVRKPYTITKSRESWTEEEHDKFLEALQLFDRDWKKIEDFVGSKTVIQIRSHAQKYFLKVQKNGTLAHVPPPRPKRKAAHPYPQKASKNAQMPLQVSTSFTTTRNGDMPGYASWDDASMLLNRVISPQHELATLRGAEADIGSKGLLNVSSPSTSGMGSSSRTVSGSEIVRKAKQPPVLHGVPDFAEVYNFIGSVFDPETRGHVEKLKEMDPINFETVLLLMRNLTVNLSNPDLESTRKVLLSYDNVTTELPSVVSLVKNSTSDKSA

[2] = molecular target: YFP-COR27 (COLD REGULATED GENE 27) (Arabidopsis thaliana) (UniProt Q8L8T7)
[3] = molecular target: T2, GFP-COR28 (COLD REGULATED GENE 28) (Arabidopsis thaliana) (UniProt Q8L983)
T2 sequence: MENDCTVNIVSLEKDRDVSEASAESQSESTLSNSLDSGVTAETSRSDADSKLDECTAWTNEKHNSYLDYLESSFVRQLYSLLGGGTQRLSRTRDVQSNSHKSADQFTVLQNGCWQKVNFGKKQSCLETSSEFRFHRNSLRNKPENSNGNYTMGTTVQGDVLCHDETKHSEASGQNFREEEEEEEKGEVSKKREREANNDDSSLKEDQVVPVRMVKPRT

Measured: binding

B1: SUPPRESSOR OF PHYA-105 (SPA1) (protein, UniProt Q9SYX2 1-1029)
chain: MPVMERVAEETVATNNIQLKARVDDVPCNKLDARHNDMVIQSETANSDCPGSSAHRNVDLTKPPPPEEAAGAKLSVEELTLGNYRIVQGSNNTNVDSPRAGKFEHLYRLARGSAFRAGDGDLDSQPRDMDQMLSRIRQQLAGAPSERQNLKPFMSRRSDQNLEAFSERLRAAGENSIMNAPALISEGVQMKTPVSSSNFSQLLLKRAMKGKGVVGKNQETPPEFVSDQDLGSKEKKLDISKSPTPHDVLPLKSSPKGNGMVSHGDGNHSKSSIGISLREFLRSSYAKREKRHGLCLFRQLVELVDSAHSKRLFLLDLRPSLFTLVPSKKLRYIGNFGKNDLESDVDEDLNRRRPVVEESSSGGRDSKKRKMDLHLNSPGNQLQATSTGRPFKRKSPVIDLNMVDARNPDSCELQQQDYIKNLSVSSVSRKQSMSTWLEEQWYTCPEEINGEDIGEKSNIYALGVLLFELLCHCESGEMHAAMMADLRHRILPPTFLSKYPKEAGFCLWLLHPEPSSRPSARDILKSELICEDDSVKSTAAAEEISELLLHFLSSLEVQKKKKASKLLQDIQTLEDDIKEAERRYSSNVSLVRSHGAIEKRVQSSPLDEHCTTSSALFVPTANTDRLMSNIRQLEDAYFFMRSQINLSSSAATARSDKTLKDRDRCSENQNENQDMSTKGKSSDQLEVFFEGLCKFARYSKFETCGTIRSGDLLNSASVVCSLSFDPDEEHIAAAGISKKIKIFDFNAFMNESVGVHYPLVEMVNKSKLSCVCWNSYIKNYLASTDYDGVVQIWDAGTGQGFSQYTEHQKRAWSVDFSPSDPTKFVSGSDDCSVKLWSINEKRSLGTIWSPANVCCVQFSSYSNHLLAFGSADYKVYCYDLRYVKTPWCTLAGHEKAVSYVKFMDSETIVSASTDNSLKLWNLNKTNSSGLSPGACSLTYKGHTNQKNFVGLSVLDGYIACGSETNEVYSYYKSLPMPMTSYKFGSVDPISGNEYFDDNGQFVSSVCWRKKSNMLVAANSTGNMKLLKLV
binds: [1] | [2] | [3]

These are yes or no findings as the source states them, for the method shown. Binding seen in cells or lysates may run through a third protein. A yes stands for co-enrichment or nearness to the bait. Other partners may have been found. For part of these data: Sequences can lack the tags named with a protein.
